Article PMC11082041
These are yes or no findings as the source states them, for the method shown. Binding seen in cells or lysates may run through a third protein. Some results given as binding are weak or reduced against the parent protein; the word gives no strength.

Amino acid sequences for entries named in this document (tags omitted).
UniProt P51784: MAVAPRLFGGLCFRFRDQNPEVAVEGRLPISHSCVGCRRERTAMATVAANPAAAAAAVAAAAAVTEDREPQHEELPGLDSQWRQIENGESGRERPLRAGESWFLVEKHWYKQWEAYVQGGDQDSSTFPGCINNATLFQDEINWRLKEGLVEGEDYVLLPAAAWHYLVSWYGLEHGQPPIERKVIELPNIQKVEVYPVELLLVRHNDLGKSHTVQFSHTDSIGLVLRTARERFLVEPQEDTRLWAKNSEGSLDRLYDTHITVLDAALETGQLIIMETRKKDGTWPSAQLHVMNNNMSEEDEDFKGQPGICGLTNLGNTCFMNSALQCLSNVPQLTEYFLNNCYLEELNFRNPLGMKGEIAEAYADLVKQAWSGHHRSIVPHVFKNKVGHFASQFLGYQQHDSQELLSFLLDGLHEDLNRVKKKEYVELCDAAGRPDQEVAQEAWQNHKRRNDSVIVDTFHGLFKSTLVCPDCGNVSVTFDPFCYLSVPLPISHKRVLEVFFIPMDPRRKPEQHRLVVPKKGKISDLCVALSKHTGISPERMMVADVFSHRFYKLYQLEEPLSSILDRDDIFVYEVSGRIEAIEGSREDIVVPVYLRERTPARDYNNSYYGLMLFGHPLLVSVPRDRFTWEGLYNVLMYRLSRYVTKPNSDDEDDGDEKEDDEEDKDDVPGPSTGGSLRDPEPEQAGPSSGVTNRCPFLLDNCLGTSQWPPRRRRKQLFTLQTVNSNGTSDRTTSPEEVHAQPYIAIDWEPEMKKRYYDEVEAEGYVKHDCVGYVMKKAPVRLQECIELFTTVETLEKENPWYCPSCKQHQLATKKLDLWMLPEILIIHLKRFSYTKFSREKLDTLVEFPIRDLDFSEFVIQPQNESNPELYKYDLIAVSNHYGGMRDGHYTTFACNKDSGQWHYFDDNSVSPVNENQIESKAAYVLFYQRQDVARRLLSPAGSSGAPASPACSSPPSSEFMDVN
UniProt Q00444: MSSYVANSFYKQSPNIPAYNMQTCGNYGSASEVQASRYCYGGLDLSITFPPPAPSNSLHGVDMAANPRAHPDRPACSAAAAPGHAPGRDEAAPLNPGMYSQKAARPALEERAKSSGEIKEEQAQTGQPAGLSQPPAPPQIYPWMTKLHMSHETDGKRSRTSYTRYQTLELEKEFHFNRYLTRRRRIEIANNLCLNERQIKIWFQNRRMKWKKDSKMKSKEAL

Key:
[1] = target: USP11 (human (endogenous in human SSC line)) (UniProt P51784); test: co-IP; human SSC line lysate (RIPA buffer) supernatant incubated with antibody overnight at 4 °C; Protein A + G magnetic beads 1 h at room temperature; eluate analysed by Western blot; done in both directions (IP of USP11 and IP of HOXC5)
[2] = target: HOXC5 (human (endogenous in human SSC line)) (UniProt Q00444); test: as above

## HOXC5 (from UniProt Q00444 1-222)
[1]
  binding: binds

## USP11 (from UniProt P51784 1-963)
[2]
  binding: binds
